The whole screen tested about 330,000 compounds, of which about 7,700 (2.3%) were called active. The shares of active, inactive and inconclusive entries below differ from those in the screen. Calls come from the whole dose curve; as a rule, active = well fitted inhibition curve with a large enough effect; inconclusive = small, poorly fitted or top-dose-only effect, or effect the other way; inactive = flat fitted curve, though single readings scatter. A potency beside an inconclusive call is a rough fit, not a confirmed value.
Test: qHTS screen for small molecules that inhibit ELG1-dependent DNA repair in human embryonic kidney (HEK293T) cells expressing luciferase-tagged ELG1; note: nearly all actives have a fitted effect of over 55% in size
Conditions: HEK293T ELG1-luciferase reporter, luminescence, 16 h, DNA damage induced by 5-fluorouridine; activity change, negative = inhibition: at 46.1 µM (top of the series)
Summary of the method: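 Overnight (16 hr) co-exposure of 2,000 cells/well to 5-fluorouridine and compound at 37 °C preceded detection. Luciferase was quantified via ONE-Glo luminescence; loss of signal denotes inhibition.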
% is set by controls: 0 for no effect and ±100 for the full control effect; potency is the fitted concentration of half-maximal effect.

SMILES	activity change, negative = inhibition	Potency
Cn1nnnc1SCc1ccccc1F	inactive: 5.88%	–
Cc1ccc(OCCC(=O)Nc2ccc(S(=O)(=O)Nc3nccs3)cc2)cc1	–	inconclusive: 0.316 µM [inhibitor, partial curve, poor fit]
Cc1ccccc1NC(=O)C1C2CCCCC21 (stereo not given)	–	inconclusive: 7.3 µM [activator, partial curve, poor fit]
CC(C)C(=O)N(Cc1cc2ccccc2[nH]c1=O)C(C)C	inactive: -1.84%	–
O=C(COC(=O)c1ccccc1-n1cnnn1)c1ccc(F)c(F)c1	–	inconclusive: 25.9 µM [activator, single point]
O=C(Nc1cc(Cl)cc(Cl)c1)C(NCCCO)c1ccccc1 (stereo not given)	inactive: -4%	–
CC(=O)c1cccc(NS(=O)(=O)c2ccc(-c3cc(C)no3)s2)c1	–	inconclusive: 4.61 µM [inhibitor, partial curve, poor fit]
O=C(CSc1nc2ccc(Cl)cc2[nH]1)NCCc1ccccc1	inactive: -26.3%	–
Cc1ccc(NC(=O)C(=O)NCC2CCCN2S(=O)(=O)c2cccs2)cc1 (stereo not given)	inactive: -15.9%	–
Cc1ccc(S(=O)(=O)N/N=C/c2ccc(C#N)cc2)cc1	inactive: -16.3%	–
CN1CCN(S(=O)(=O)c2cccc(C(=O)NCc3ccc(Cl)cc3)c2)CC1	–	inconclusive: 14.6 µM [inhibitor, single point]
CC(=O)NCc1ccc(S(=O)(=O)N/N=C/c2ccc(N(C)C)cc2)cc1	–	inconclusive: 18.4 µM [activator, single point]
O=C1c2ccccc2C(=O)N1CC(O)COc1ccccc1Cl (stereo not given)	–	inconclusive: 2.91 µM [activator, full curve, poor fit]
COc1ccc(C(=O)Cc2ccc(F)cc2)c(OC)c1	–	inconclusive: 16.4 µM [activator, partial curve]
O=C(Nc1csc(Cc2c(Cl)cccc2Cl)n1)NN1CCOCC1	inactive: -8.23%	–
C/C(=N\NC(=O)COc1c(C)cccc1C)c1cccs1	–	inconclusive: 6.51 µM [inhibitor, single point]
CCCCNC(=S)N(CCO)Cc1cc2cc3c(cc2[nH]c1=O)OCCO3	–	inconclusive: 29.1 µM [inhibitor, single point]
Oc1ccccc1-c1cc(C(F)(F)C(F)F)[nH]n1	–	inconclusive: 20.6 µM [activator, partial curve, poor fit]
CC(C)c1ccc(NC(=O)Cn2ncc3ccccc32)cc1	–	inconclusive: 18.3 µM [activator, partial curve]
Cc1ccc(Nc2nc(CSc3nnc(-c4cccnc4)n3-c3ccccc3F)cs2)cc1	–	inconclusive: 32.6 µM [inhibitor, single point]
O=C(Nc1cccc(S(=O)(=O)N2CCCCCC2)c1)C1CC(=O)N(c2ccc3c(c2)OCCO3)C1 (stereo not given)	–	inconclusive: 25.9 µM [inhibitor, single point]
COc1cc(OC)c(/C=N/NC(N)=S)cc1Br	–	inconclusive: 32.6 µM [activator, partial curve, poor fit]
COc1cccc(NC(=O)C(NC2CCCC2)c2ccccc2)c1 (stereo not given)	inactive: 1.23%	–

Some values from the list.
activity change, negative = inhibition, `Cc1ccc(NC(=O)C(=O)NCC2CCCN2S(=O)(=O)c2cccs2)cc1` (stereo not given) reads inactive: -15.9%
Potency, `CC(=O)c1cccc(NS(=O)(=O)c2ccc(-c3cc(C)no3)s2)c1` reads inconclusive: 4.61 µM [inhibitor, partial curve, poor fit]
activity change, negative = inhibition, `O=C(Nc1cc(Cl)cc(Cl)c1)C(NCCCO)c1ccccc1` (stereo not given) reads inactive: -4%
Potency, `O=C(Nc1cccc(S(=O)(=O)N2CCCCCC2)c1)C1CC(=O)N(c2ccc3c(c2)OCCO3)C1` (stereo not given) reads inconclusive: 25.9 µM [inhibitor, single point]

The list goes on.

SMILES	activity change, negative = inhibition	Potency
CCC(=O)Nc1cccc(NC(=O)c2cc3ccccc3o2)c1	–	inconclusive: 5.17 µM [activator, full curve]
O=C(NCCC1=CCCCC1)NC12CC3CC(CC(C3)C1)C2	–	inconclusive: 4.11 µM [activator, full curve]
Nc1cccc(-c2nc3ncccc3o2)c1	–	inconclusive: 11.6 µM [activator, partial curve]
c1cncc(C2Nc3ccccc3-c3nc4ccccc4n32)c1 (stereo not given)	–	inconclusive: 18.4 µM [activator, single point]
COc1ccc(-c2cc(-c3cc(OC)ccc3O)[nH]n2)cc1	–	inconclusive: 5.17 µM [activator, full curve]
COc1ccc(CNC(=O)CN(c2ccccc2OC)S(=O)(=O)c2cccs2)cc1	–	inconclusive: 23.1 µM [inhibitor, single point]
CC(=O)c1c(C)[nH]c(C(=O)OCC(=O)Nc2cc(S(=O)(=O)N3CCCCC3)ccc2C)c1C	–	inconclusive: 23.1 µM [inhibitor, single point]
O=C1C2CCCCN2C(=O)N1CCCCN1CCN(c2cccc(Br)c2)CC1 (stereo not given)	inactive: -3.37%	–
COc1ccc(/C=N/N(CCC(=O)NC(C)(C)C)C2=NS(=O)(=O)c3ccccc32)cc1	–	inconclusive: 23.1 µM [inhibitor, partial curve, poor fit]
COc1cccc(CNCc2ccc(OC)c3ccccc23)c1OC	–	inconclusive: 2.31 µM [inhibitor, partial curve, poor fit]
Fc1ccccc1C1c2cccn2CCN1C(=S)Nc1cccc(Br)c1 (stereo not given)	–	inconclusive: 20.6 µM [inhibitor, single point]
NC(=O)C1CCN(C2=C(Cl)C(=O)c3ccccc3C2=O)CC1	–	inconclusive: 35.5 µM [inhibitor, single point]
CN1CCN(S(=O)(=O)Cc2ccc(Cl)cc2)CC1	inactive: 7.12%	–
C=CCOc1ccc(/C=C/C(=O)OCC(=O)N(C)C2CCS(=O)(=O)C2)cc1 (stereo not given)	inactive: -3.43%	–
CCOC(=O)c1oc2ccccc2c1NC(=O)c1cc(OC)cc(OC)c1	–	inconclusive: 20.6 µM [inhibitor, single point]
Cc1ccc(OCCCN2C(=O)C(=O)c3cc(C)ccc32)cc1	inactive: -14.4%	–
CCNC(=O)NC(=O)C(C)OC(=O)C1CCN(S(=O)(=O)c2ccccc2F)CC1 (stereo not given)	inactive: 16%	–
Brc1ccc(C2C3=C(Nc4ncnn42)c2ccccc2OC3c2ccncc2)cc1 (stereo not given)	inactive: -18.4%	–
COc1cccc(C(=O)O/N=C(\N)CS(=O)(=O)c2ccccc2)c1	–	inconclusive: 20.6 µM [activator, single point]
Cn1c(CNC(=O)c2ccc(Cl)c(Cl)c2)nnc1SCC(=O)Nc1sc2c(c1C#N)CCCC2	–	inconclusive: 23.1 µM [inhibitor, partial curve, poor fit]
Cc1cccc(N2C(=O)c3ccc(C(=O)Nc4c[nH]c(=O)[nH]c4=O)cc3C2=O)c1	–	inconclusive: 18.3 µM [activator, single point]
Cc1oc(-c2ccccc2)nc1C(=O)OCC(=O)NC(C)c1ccccc1 (stereo not given)	–	inconclusive: 16.4 µM [inhibitor, single point]

Source: PubChem BioAssay AID504467 (National Center for Advancing Translational Sciences (NCATS), 2011)
